From patent US20020086017A1, “GA binding protein and neurite derived growth factors for use in the treatment of muscular dystrophy” (published 2002)
These are yes or no findings as the source states them, for the method shown. Some binding calls cover weakened binding; strength is not graded here. Where a sequence is shown, tags or fusion partners need not be part of it.

By UniProt entry, the sequences of proteins in these tests, tags left out.
UniProt Q06547: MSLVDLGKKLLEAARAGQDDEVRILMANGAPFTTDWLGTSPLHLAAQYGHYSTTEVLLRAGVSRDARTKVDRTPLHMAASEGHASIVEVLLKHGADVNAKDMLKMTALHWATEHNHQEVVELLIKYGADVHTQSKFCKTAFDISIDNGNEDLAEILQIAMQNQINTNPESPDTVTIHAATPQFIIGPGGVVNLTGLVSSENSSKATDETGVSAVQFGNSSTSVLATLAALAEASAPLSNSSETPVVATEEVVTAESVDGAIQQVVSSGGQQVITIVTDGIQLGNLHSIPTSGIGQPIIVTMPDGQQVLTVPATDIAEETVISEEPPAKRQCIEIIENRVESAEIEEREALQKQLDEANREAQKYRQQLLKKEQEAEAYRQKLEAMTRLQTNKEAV

Target: T1, GABP-α GST fusion protein (human) (UniProt Q06546)
T1 sequence (looked up): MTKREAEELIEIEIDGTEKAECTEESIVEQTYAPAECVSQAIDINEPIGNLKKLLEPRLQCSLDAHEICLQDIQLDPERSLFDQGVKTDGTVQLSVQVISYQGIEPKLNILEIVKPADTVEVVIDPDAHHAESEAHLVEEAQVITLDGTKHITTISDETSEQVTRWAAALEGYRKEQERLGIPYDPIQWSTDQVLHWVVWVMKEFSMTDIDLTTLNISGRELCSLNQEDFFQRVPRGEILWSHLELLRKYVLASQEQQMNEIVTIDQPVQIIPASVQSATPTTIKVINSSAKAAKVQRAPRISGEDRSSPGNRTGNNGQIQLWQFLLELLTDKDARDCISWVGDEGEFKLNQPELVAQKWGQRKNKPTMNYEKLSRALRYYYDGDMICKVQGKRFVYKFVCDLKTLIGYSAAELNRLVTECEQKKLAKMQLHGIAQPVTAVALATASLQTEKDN
Assay: EMSA with radiolabelled UtroNBox DNA probe and purified GST fusion proteins

binding: binds
Substance: GABP-β GST fusion protein (from UniProt Q06547 1-395)
